Drawing on ChEMBL document CHEMBL1128053, “Inhibition of matrix metalloproteinases by N-carboxyalkyl dipeptides: Enhanced potency and selectivity with substituted P1 homophenylalanines” (Bioorg Med Chem Lett, 1995), this text covers Ki for four compounds.

Sequences of proteins named here, by UniProt entry; tags and fusion partners are left off. A change or cut given only in a name is not applied to a line headed by its entry.
UniProt P08254: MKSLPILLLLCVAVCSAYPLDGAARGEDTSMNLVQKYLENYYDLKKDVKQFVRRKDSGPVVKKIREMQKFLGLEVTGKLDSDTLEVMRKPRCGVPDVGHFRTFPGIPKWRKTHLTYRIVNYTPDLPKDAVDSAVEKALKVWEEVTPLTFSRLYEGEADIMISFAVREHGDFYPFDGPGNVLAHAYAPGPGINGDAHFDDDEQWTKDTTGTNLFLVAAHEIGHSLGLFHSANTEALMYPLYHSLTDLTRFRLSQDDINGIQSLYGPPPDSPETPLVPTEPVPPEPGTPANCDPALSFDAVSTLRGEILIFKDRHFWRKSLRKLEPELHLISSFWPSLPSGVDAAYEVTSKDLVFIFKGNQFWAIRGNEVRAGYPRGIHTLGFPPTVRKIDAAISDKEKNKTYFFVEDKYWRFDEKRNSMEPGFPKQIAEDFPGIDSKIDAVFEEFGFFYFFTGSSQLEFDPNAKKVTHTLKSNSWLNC

The Ki is the dissociation constant of the complex between target and ligand, obtained from inhibition or displacement. Low readings indicate higher affinity, high ones lower affinity.

Molecules are shown by their SMILES. Where only a bound is given, the exact number is not on record here.

In this test the target is Stromelysin-1 (Homo sapiens, UniProt P08254).
`Cc1cc(C)cc(CC[C@H](N[C@H](C)C(=O)O)C(=O)N[C@@H](CC(C)C)C(=O)Nc2ccccc2)c1` gave a Ki of over 10 µM.
`COc1ccccc1CC[C@H](N[C@H](C)C(=O)O)C(=O)N[C@@H](CC(C)C)C(=O)Nc1ccccc1` registered a Ki of over 10 µM.
The value for `Cc1ccccc1CC[C@H](N[C@H](C)C(=O)O)C(=O)N[C@@H](CC(C)C)C(=O)Nc1ccccc1` was over 10 µM.
The result for `COc1ccc(CC[C@H](N[C@H](C)C(=O)O)C(=O)N[C@@H](CC(C)C)C(=O)Nc2ccccc2)cc1OC` reads over 10 µM.
